# Assay results published in article PMC2796999.
# Results are given in words; binding and its absence hold for the method and conditions named. In cells and extracts the contact can be indirect. Some entries that bind do so weakly or less than the wild type.
# T1: FADD (Fas-associated death domain protein) (mouse (endogenous in Eph4)) (UniProt Q61160)
# T1 sequence: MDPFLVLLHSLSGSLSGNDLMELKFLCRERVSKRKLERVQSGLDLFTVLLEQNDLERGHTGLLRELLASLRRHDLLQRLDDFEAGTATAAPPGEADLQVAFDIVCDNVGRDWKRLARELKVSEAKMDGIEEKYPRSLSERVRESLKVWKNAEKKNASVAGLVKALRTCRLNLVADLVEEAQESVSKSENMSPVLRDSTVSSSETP
# B1: occludin (protein, UniProt Q61146 1-521)
# chain: MSVRPFESPPPYRPDEFKPNHYAPSNDMYGGEMHVRPMLSQPAYSFYPEDEILHFYKWTSPPGVIRILSMLIIVMCIAIFACVASTLAWDRGYGTGLFGGSLNYPYSGFGYGGGYGGGYGGYGYGYGGYTDPRAAKGFLLAMAAFCFIASLVIFVTSVIRSGMSRTRRYYLIVIIVSAILGIMVFIATIVYIMGVNPTAQASGSMYGSQIYMICNQFYTPGGTGLYVDQYLYHYCVVDPQEAIAIVLGFMIIVAFALIIFFAVKTRRKMDRYDKSNILWDKEHIYDEQPPNVEEWVKNVSAGTQDMPPPPSDYAERVDSPMAYSSNGKVNGKRSYPESFYKSTPLVPEVAQEIPLTLSVDDFRQPRYSSNGNLETPSKRAPTKGKAGKGKRTDPDHYETDYTTGGESCEELEEDWVREYPPITSDQQRQLYKRNFDAGLQEYKSLQAELDDVNKELSRLDKELDDYREESEEYMAAADEYNRLKQVKGSADYKSKRNYCKQLKSKLSHIKRMVGDYDRRKP
# Target: T1, FADD (Fas-associated death domain protein) (mouse (endogenous in Eph4))
# Assay: co-IP; Eph4 cells treated with 800 uM LYHY peptide for 5 hrs or left untreated; lysate (1% Triton X-100, 150 mM NaCl, 500 ug protein) precipitated with mouse anti-FADD antibody and protein A/G agarose beads at room temperature, washes including 500 mM NaCl; blotted with rabbit anti-occludin …
binder,measurement,value
B1,binding,binds
